{
  "source": "paper PMC10729819",
  "biological_target": "T1, GFP–S100A11 (S100 Ca2+-binding protein A11) (human) (UniProt P31949)",
  "T1 sequence": "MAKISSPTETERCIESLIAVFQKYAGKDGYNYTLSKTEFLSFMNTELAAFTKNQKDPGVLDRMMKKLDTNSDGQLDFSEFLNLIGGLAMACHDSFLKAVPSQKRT",
  "assay": "co-IP; GFP-Trap beads on cleared lysates of clonal MCF-10A cells stably expressing GFP–S100A11, arrested in metaphase; mild lysis buffer (50 mM Tris-HCl pH 7.4, 150 mM NaCl, 0.5 mM EDTA, 10 mM NaF, 1 mM Na3VO4, 0.5% NP40); western blotting of the immunoprecipitates",
  "note": "These are yes or no findings as the source states them, for the method shown. Binding seen in cells or lysates may run through a third protein. Some entries that bind do so weakly or less than the wild type. Tags and fused reporters may be left off the sequences shown.",
  "data": [
    {"binder": "leucine-glycine-asparagine repeat protein LGN (protein, UniProt P81274 1-684) MEENLISMREDHSFHVRYRMEASCLELALEGERLCKSGDCRAGVSFFEAAVQVGTEDLKTLSAIYSQLGNAYFYLHDYAKALEYHHHDLTLARTIGDQLGEAKASGNLGNTLKVLGNFDEAIVCCQRHLDISRELNDKVGEARALYNLGNVYHAKGKSFGCPGPQDVGEFPEEVRDALQAAVDFYEENLSLVTALGDRAAQGRAFGNLGNTHYLLGNFRDAVIAHEQRLLIAKEFGDKAAERRAYSNLGNAYIFLGEFETASEYYKKTLLLARQLKDRAVEAQSCYSLGNTYTLLQDYEKAIDYHLKHLAIAQELNDRIGEGRACWSLGNAYTALGNHDQAMHFAEKHLEISREVGDKSGELTARLNLSDLQMVLGLSYSTNNSIMSENTEIDSSLNGVRPKLGRRHSMENMELMKLTPEKVQNWNSEILAKQKPLIAKPSAKLLFVNRLKGKKYKTNSSTKVLQDASNSIDHRIPNSQRKISADTIGDEGFFDLLSRFQSNRMDDQRCCLQEKNCHTASTTTSSTPPKMMLKTSSVPVVSPNTDEFLDLLASSQSRRLDDQRASFSNLPGLRLTQNSQSVLSHLMTNDNKEADEDFFDILVKCQGSRLDDQRCAPPPATTKGPTVPDEDFFSLILRSQGKRMDEQRVLLQRDQNRDTDFGLKDFLQNNALLEFKNSGKKSADH", "values": [
      {"measurement": "binding", "result": "binds"}
    ]}
  ]
}
